Experimental data: article PMC11747444

Sequences of proteins named here, by UniProt entry; tags and fusion partners are left off.
UniProt P14635: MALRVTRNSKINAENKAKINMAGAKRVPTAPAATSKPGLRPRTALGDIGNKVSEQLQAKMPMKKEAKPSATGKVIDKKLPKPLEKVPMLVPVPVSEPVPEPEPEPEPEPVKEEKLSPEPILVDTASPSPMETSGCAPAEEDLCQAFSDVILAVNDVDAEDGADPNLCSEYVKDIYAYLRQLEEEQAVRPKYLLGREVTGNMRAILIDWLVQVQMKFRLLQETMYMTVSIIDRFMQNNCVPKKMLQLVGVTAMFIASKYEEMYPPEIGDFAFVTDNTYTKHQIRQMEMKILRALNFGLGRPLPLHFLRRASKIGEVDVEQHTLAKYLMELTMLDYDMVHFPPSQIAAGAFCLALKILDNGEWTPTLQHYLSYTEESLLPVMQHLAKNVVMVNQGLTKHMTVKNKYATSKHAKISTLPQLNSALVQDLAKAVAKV

Target: Flag-tagged wild-type cyclin B1 (human) (UniProt P14635)
Assay: affinity purification with mass spectrometry; α-Flag IP from nocodazole-arrested HeLa cells, uninduced or expressing Flag-cyclin B1^wt or ^mut; in-gel digest, DIA mass spectrometry, three independent experiments

Row | binding | Binder
1 | binds | G2 and S-phase expressed 1 (GTSE1) (protein, UniProt Q9NYZ3 1-739) MEGGGGRDEPSACRAGDVNMDDPKKEDILLLADEKFDFDLSLSSSSANEDDEVFFGPFGHKERCIAASLELNNPVPEQPPLPTSESPFAWSPLAGEKFVEVYKEAHLLALHIESSSRNQAAQAAKPEDPRSQGVERFIQESKLKINLFEKEKEMKKSPTSLKRETYYLSDSPLLGPPVGEPRLLASSPALPSSGAQARLTRAPGPPHSAHALPRESCTAHAASQAATQRKPGTKLLLPRAASVRGRSIPGAAEKPKKEIPASPSRTKIPAEKESHRDVLPDKPAPGAVNVPAAGSHLGQGKRAIPVPNKLGLKKTLLKAPGSTSNLARKSSSGPVWSGASSACTSPAVGKAKSSEFASIPANSSRPLSNISKSGRMGPAMLRPALPAGPVGASSWQAKRVDVSELAAEQLTAPPSASPTQPQTPEGGGQWLNSSCAWSESSQLNKTRSIRRRDSCLNSKTKVMPTPTNQFKIPKFSIGDSPDSSTPKLSRAQRPQSCTSVGRVTVHSTPVRRSSGPAPQSLLSAWRVSALPTPASRRCSGLPPMTPKTMPRAVGSPLCVPARRRSSEPRKNSAMRTEPTRESNRKTDSRLVDVSPDRGSPPSRVPQALNFSPEESDSTFSKSTATEVAREEAKPGGDAAPSEALLVDIKLEPLAVTPDAASQPLIDLPLIDFCDTPEAHVAVGSESRPLIDLMTNTPDMNKNVAKPSPVVGQLIDLSSPLIQLSPEADKENVDSPLLKF
2 | binds | MgcRacGAP (RGAP1) (protein, UniProt Q9H0H5 1-632) MDTMMLNVRNLFEQLVRRVEILSEGNEVQFIQLAKDFEDFRKKWQRTDHELGKYKDLLMKAETERSALDVKLKHARNQVDVEIKRRQRAEADCEKLERQIQLIREMLMCDTSGSIQLSEEQKSALAFLNRGQPSSSNAGNKRLSTIDESGSILSDISFDKTDESLDWDSSLVKTFKLKKREKRRSTSRQFVDGPPGPVKKTRSIGSAVDQGNESIVAKTTVTVPNDGGPIEAVSTIETVPYWTRSRRKTGTLQPWNSDSTLNSRQLEPRTETDSVGTPQSNGGMRLHDFVSKTVIKPESCVPCGKRIKFGKLSLKCRDCRVVSHPECRDRCPLPCIPTLIGTPVKIGEGMLADFVSQTSPMIPSIVVHCVNEIEQRGLTETGLYRISGCDRTVKELKEKFLRVKTVPLLSKVDDIHAICSLLKDFLRNLKEPLLTFRLNRAFMEAAEITDEDNSIAAMYQAVGELPQANRDTLAFLMIHLQRVAQSPHTKMDVANLAKVFGPTIVAHAVPNPDPVTMLQDIKRQPKVVERLLSLPLEYWSQFMMVEQENIDPLHVIENSNAFSTPQTPDIKVSLLGPVTTPEHQLLKTPSSSSLSQRVRSTLTKNTPRFGSKSKSATNLGRQGNFFASPMLK

No constants are given. Whether binding was seen depends on the method and setting. Binding seen in cells or lysates may run through a third protein. A yes stands for co-enrichment or nearness to the bait. Other partners may have been found.
